{"source": "PubChem BioAssay AID1224830 (NIAID, 2016)", "purpose": "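Host factors that control LPS-induced TNF expression in human macrophages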 (primary screen)", "system": "human THP-1 monocytic leukaemia cells, TNF dual-luciferase reporter clone, PMA-differentiated to macrophage-like cells", "reagents": "siRNA pool against human genes, 50 nM", "timing": "LPS for 4 h, given about 3 days after siRNA transfection", "challenge": "bacterial LPS (TLR4 ligand), 10 ng/ml", "measured": "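TNF firefly reporter luminescence divided by renilla, normalised to the plate median, then turned into a robust z-score for each replicate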", "reading the numbers": "TNF reporter robust z-score: higher = stronger TNF reporter response to LPS", "call rule": "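a well is active when its z-score exceeds 2.8 or falls below -1.5; control wells carry no call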", "note": "Shown is one part, drawn at random, of about 18,000 reagents tested. About 2,900 of them (16%) were called active. 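Calls are made per well; low scores hint the gene aids the LPS response, high scores that it dampens it.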 Repeated entries: four replicate wells of each siRNA pool."}
{"target gene": "DEFB107A", "TNF reporter robust z-score": 0.57, "Call": "inactive"}
{"target gene": "DEFB107A", "TNF reporter robust z-score": 0.7, "Call": "inactive"}
{"target gene": "DEFB107A", "TNF reporter robust z-score": -0.43, "Call": "inactive"}
{"target gene": "DEFB107A", "TNF reporter robust z-score": -0.64, "Call": "inactive"}
{"target gene": "NKIRAS2", "TNF reporter robust z-score": 1, "Call": "inactive"}
{"target gene": "NKIRAS2", "TNF reporter robust z-score": -0.83, "Call": "inactive"}
{"target gene": "NKIRAS2", "TNF reporter robust z-score": -1.01, "Call": "inactive"}
{"target gene": "NKIRAS2", "TNF reporter robust z-score": -0.71, "Call": "inactive"}
{"target gene": "RAB36", "TNF reporter robust z-score": 0.32, "Call": "inactive"}
{"target gene": "RAB36", "TNF reporter robust z-score": 0.6, "Call": "inactive"}
{"target gene": "RAB36", "TNF reporter robust z-score": 0.69, "Call": "inactive"}
{"target gene": "RAB36", "TNF reporter robust z-score": 0.87, "Call": "inactive"}
{"target gene": "FBXW10B", "TNF reporter robust z-score": -0.75, "Call": "inactive"}
{"target gene": "FBXW10B", "TNF reporter robust z-score": 0.28, "Call": "inactive"}
{"target gene": "FBXW10B", "TNF reporter robust z-score": -0.84, "Call": "inactive"}
{"target gene": "FBXW10B", "TNF reporter robust z-score": 0.14, "Call": "inactive"}
{"target gene": "TUBA1B", "TNF reporter robust z-score": -1.08, "Call": "inactive"}
{"target gene": "TUBA1B", "TNF reporter robust z-score": 1.86, "Call": "inactive"}
{"target gene": "TUBA1B", "TNF reporter robust z-score": 0.87, "Call": "inactive"}
{"target gene": "TUBA1B", "TNF reporter robust z-score": -0.82, "Call": "inactive"}
{"target gene": "CLDND1", "TNF reporter robust z-score": 1.89, "Call": "inactive"}
{"target gene": "CLDND1", "TNF reporter robust z-score": 2.03, "Call": "inactive"}
{"target gene": "CLDND1", "TNF reporter robust z-score": 2.25, "Call": "inactive"}
{"target gene": "CLDND1", "TNF reporter robust z-score": 4.97, "Call": "active"}
{"target gene": "CSF3", "TNF reporter robust z-score": 0.09, "Call": "inactive"}
{"target gene": "CSF3", "TNF reporter robust z-score": 0.13, "Call": "inactive"}
{"target gene": "CSF3", "TNF reporter robust z-score": -0.18, "Call": "inactive"}
{"target gene": "CSF3", "TNF reporter robust z-score": 1.17, "Call": "inactive"}
{"target gene": "TGFB3", "TNF reporter robust z-score": 2.77, "Call": "inactive"}
{"target gene": "TGFB3", "TNF reporter robust z-score": 2.51, "Call": "inactive"}
{"target gene": "TGFB3", "TNF reporter robust z-score": 0.64, "Call": "inactive"}
{"target gene": "TGFB3", "TNF reporter robust z-score": 2.06, "Call": "inactive"}
{"target gene": "KITLG", "TNF reporter robust z-score": 0.66, "Call": "inactive"}
{"target gene": "KITLG", "TNF reporter robust z-score": -0.59, "Call": "inactive"}
{"target gene": "KITLG", "TNF reporter robust z-score": -0.41, "Call": "inactive"}
{"target gene": "KITLG", "TNF reporter robust z-score": 0.52, "Call": "inactive"}
{"target gene": "RHBDF1", "TNF reporter robust z-score": 0.89, "Call": "inactive"}
{"target gene": "RHBDF1", "TNF reporter robust z-score": 0.93, "Call": "inactive"}
{"target gene": "RHBDF1", "TNF reporter robust z-score": 0.53, "Call": "inactive"}
{"target gene": "RHBDF1", "TNF reporter robust z-score": 0.37, "Call": "inactive"}
{"target gene": "TTC3", "TNF reporter robust z-score": 1.97, "Call": "inactive"}
{"target gene": "TTC3", "TNF reporter robust z-score": 0.46, "Call": "inactive"}
{"target gene": "TTC3", "TNF reporter robust z-score": 0.61, "Call": "inactive"}
{"target gene": "TTC3", "TNF reporter robust z-score": 1.56, "Call": "inactive"}
{"target gene": "CTBP1-DT", "TNF reporter robust z-score": -0.57, "Call": "inactive"}
{"target gene": "CTBP1-DT", "TNF reporter robust z-score": 0.17, "Call": "inactive"}
{"target gene": "CTBP1-DT", "TNF reporter robust z-score": -0.73, "Call": "inactive"}
{"target gene": "CTBP1-DT", "TNF reporter robust z-score": 0.23, "Call": "inactive"}
{"target gene": "MUC13", "TNF reporter robust z-score": -0.64, "Call": "inactive"}
{"target gene": "MUC13", "TNF reporter robust z-score": -0.44, "Call": "inactive"}
{"target gene": "MUC13", "TNF reporter robust z-score": -0.38, "Call": "inactive"}
{"target gene": "MUC13", "TNF reporter robust z-score": -0.04, "Call": "inactive"}
{"target gene": "SLC2A4RG", "TNF reporter robust z-score": -1.12, "Call": "inactive"}
{"target gene": "SLC2A4RG", "TNF reporter robust z-score": -0.22, "Call": "inactive"}
{"target gene": "SLC2A4RG", "TNF reporter robust z-score": -0.65, "Call": "inactive"}
{"target gene": "SLC2A4RG", "TNF reporter robust z-score": -0.21, "Call": "inactive"}
{"target gene": "KLHDC2", "TNF reporter robust z-score": 2.01, "Call": "inactive"}
{"target gene": "KLHDC2", "TNF reporter robust z-score": 1.55, "Call": "inactive"}
{"target gene": "KLHDC2", "TNF reporter robust z-score": -0.9, "Call": "inactive"}
{"target gene": "KLHDC2", "TNF reporter robust z-score": -0.07, "Call": "inactive"}

Laid out differently: entries from further up
target gene	TNF reporter robust z-score	Call
TTC3	1.97	inactive
TTC3	0.46	inactive
TTC3	0.61	inactive
TTC3	1.56	inactive
CTBP1-DT	-0.57	inactive
CTBP1-DT	0.17	inactive
CTBP1-DT	-0.73	inactive
CTBP1-DT	0.23	inactive
